# The list shows a part of the results. Repeats are few or missing, and single values can be far off.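 Imaging used 1,536-well plates; nuclei positive for cleaved PARP by antibody were divided by total DNA-stained nuclei to yield the apoptosis fraction. Doses for screening kept most cells viable, and cell lines differ markedly in resting and induced cleaved-PARP levels.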
# How the values were obtained:
# Assay in all cases: cleaved PARP positive nuclei fraction relative to DMSO control; melanoma cells; higher = more apoptosis
# Details in all cases: library dose: low library concentration; 72 h
# 501Mel = tested on: 501Mel
# A101D = tested on: A101D
# A2058 = tested on: A2058
# C32 = tested on: C32
# CBRC008 = tested on: CBRC008 (line from a melanoma biopsy)
# CBRC014 = tested on: CBRC014 (line from a melanoma biopsy)
# CBRC016 = tested on: CBRC016 (line from a melanoma biopsy)
# CBRC017 = tested on: CBRC017 (line from a melanoma biopsy)
# COLO792 = tested on: COLO792
# COLO800 = tested on: COLO800
# COLO829 = tested on: COLO829
# G361 = tested on: G361
# IPC-298 = tested on: IPC-298
# IST-MEL1 = tested on: IST-MEL1
# LB2518-MEL = tested on: LB2518-MEL
# LOXIMVI = tested on: LOXIMVI
SMILES,cleaved PARP positive nuclei fraction (501Mel),cleaved PARP positive nuclei fraction (A101D),cleaved PARP positive nuclei fraction (A2058),cleaved PARP positive nuclei fraction (C32),cleaved PARP positive nuclei fraction (CBRC008),cleaved PARP positive nuclei fraction (CBRC014),cleaved PARP positive nuclei fraction (CBRC016),cleaved PARP positive nuclei fraction (CBRC017),cleaved PARP positive nuclei fraction (COLO792),cleaved PARP positive nuclei fraction (COLO800),cleaved PARP positive nuclei fraction (COLO829),cleaved PARP positive nuclei fraction (G361),cleaved PARP positive nuclei fraction (IPC-298),cleaved PARP positive nuclei fraction (IST-MEL1),cleaved PARP positive nuclei fraction (LB2518-MEL),cleaved PARP positive nuclei fraction (LOXIMVI)
"CN(c1ncccc1CNc1nc(Nc2ccc3c(c2)CC(=O)N3)ncc1C(F)(F)F)S(C)(=O)=O + O=S(=O)(c1ccccc1)N(CC(F)(F)F)c1ccc(C(O)(C(F)(F)F)C(F)(F)F)cc1 [T0901317] (first compound 0.08 µM, partner dose 1.4 µM)",91.3%,79.3%,89.9%,134%,149%,109%,52.2%,167%,55%,36.6%,146%,86.9%,52%,83.3%,82.3%,89.5%
"CC(=O)O[C@@]12CO[C@@H]1C[C@H](O)[C@@]1(C)C(=O)[C@H](O)C3=C(C)[C@@H](OC(=O)[C@H](O)[C@@H](NC(=O)OC(C)(C)C)c4ccccc4)C[C@@](O)([C@@H](OC(=O)c4ccccc4)[C@H]21)C3(C)C [Docetaxel] + CCc1ccc(CCOc2ccc(CC3SC(=O)NC3=O)cc2)nc1 [pioglitazone] (first compound 0.0001 µM, partner dose 2 µM)",105%,50.1%,2000%,916%,154%,156%,125%,277%,534%,61.4%,219%,312%,417%,241%,66.5%,105%
"CC(=O)O[C@@]12CO[C@@H]1C[C@H](O)[C@@]1(C)C(=O)[C@H](O)C3=C(C)[C@@H](OC(=O)[C@H](O)[C@@H](NC(=O)OC(C)(C)C)c4ccccc4)C[C@@](O)([C@@H](OC(=O)c4ccccc4)[C@H]21)C3(C)C [Docetaxel] + CCCCCCCCCCCC1=C(O)C(=O)C=C(O)C1=O [Embelin] (first compound 0.0001 µM, partner dose 1.2 µM)",194%,70.8%,2510%,207%,472%,168%,225%,129%,478%,594%,133%,806%,476%,96.6%,110%,153%
"C[C@@H](N)c1ccc(C(=O)Nc2ccnc3[nH]ccc23)cc1 + c1cc(-c2cnn3cc(-c4ccc(OCCN5CCCCC5)cc4)cnc23)ccn1 [Dorsomorphin] (first compound 0.4 µM, partner dose 0.4 µM)",74.4%,12.2%,131%,83.8%,164%,89.9%,66.9%,86.3%,42.7%,86.1%,29.5%,109%,47.1%,77.7%,60.9%,196%
"COc1ccc(C2=N[C@@H](c3ccc(Cl)cc3)[C@@H](c3ccc(Cl)cc3)N2C(=O)N2CCNC(=O)C2)c(OC(C)C)c1 [Nutlin-3] + CCN(CC)CCCCNc1ncc2cc(-c3cc(OC)cc(OC)c3)c(NC(=O)NC(C)(C)C)nc2n1 [PD173074] (first compound 0.1 µM, partner dose 0.1 µM)",63%,66.9%,113%,48.8%,38.7%,103%,66.2%,155%,126%,125%,25.5%,78.1%,75.6%,20.9%,86.4%,377%
"Cn1sc(=O)n(Cc2ccccc2)c1=O + CC(C)CCN1c2nc(Nc3cc(F)c(O)c(F)c3)ncc2N(C)C(=O)C1C [BID1870] (first compound 0.4 µM, partner dose 0.2 µM)",37.1%,23.9%,136%,129%,81.3%,95.5%,66.4%,73.6%,52.2%,55.1%,105%,173%,93.9%,115%,35%,114%
"NC1(c2ccc(-c3nc4ccn5c(=O)[nH]nc5c4cc3-c3ccccc3)cc2)CCC1 + Cc1cc([N+](=O)[O-])ccc1NS(=O)(=O)c1cc(Cl)ccc1Cl [FH535] (first compound 0.4 µM, partner dose 1 µM)",198%,17.2%,23.2%,237%,376%,156%,228%,566%,184%,157%,133%,84.2%,169%,83.5%,86.8%,232%
"CC(=O)O[C@@]12CO[C@@H]1C[C@H](O)[C@@]1(C)C(=O)[C@H](O)C3=C(C)[C@@H](OC(=O)[C@H](O)[C@@H](NC(=O)OC(C)(C)C)c4ccccc4)C[C@@](O)([C@@H](OC(=O)c4ccccc4)[C@H]21)C3(C)C [Docetaxel] + O=C(Nc1ccccc1)c1cc([N+](=O)[O-])ccc1Cl [GW9662] (first compound 0.0001 µM, partner dose 2 µM)",199%,42.1%,5310%,398%,323%,143%,96.5%,161%,368%,535%,486%,530%,198%,109%,119%,51.7%
"CCN(CC)CCNC(=O)c1c(C)[nH]c(/C=C2\C(=O)Nc3ccc(F)cc32)c1C [sunitinib] + N#Cc1c(O)c2c(-c3ccc(-c4ccccc4O)cc3)csc2[nH]c1=O [A769662] (first compound 0.4 µM, partner dose 2 µM)",90.8%,125%,36.7%,141%,172%,91.4%,152%,73%,102%,90.7%,69.6%,83.1%,237%,34.4%,83.4%,133%
"CC1(C)CCC(c2ccc(Cl)cc2)=C(CN2CCN(c3ccc(C(=O)NS(=O)(=O)c4ccc(N[C@H](CCN5CCOCC5)CSc5ccccc5)c(S(=O)(=O)C(F)(F)F)c4)cc3)CC2)C1 + COc1ccc(-c2ccc3c(N4CCOCC4)nc(N4C[C@@H](C)O[C@@H](C)C4)nc3n2)cc1CO [KU0063794] (first compound 0.4 µM, partner dose 0.02 µM)",63.9%,62.9%,247%,256%,485%,427%,312%,268%,293%,331%,123%,214%,151%,85.4%,177%,91.5%
"Cn1cnc2c(F)c(Nc3ccc(Br)cc3Cl)c(C(=O)NOCCO)cc21 [selumetinib] + O=C1NC(=O)/C(=C/c2ccc(-c3ccc(F)cc3O)o2)S1 [AS252424] (first compound 0.015 µM, partner dose 1 µM)",314%,19.5%,162%,91.2%,98.8%,118%,120%,179%,43%,84.5%,22.1%,231%,166%,70.9%,329%,108%
"C[C@@H](N)c1ccc(C(=O)Nc2ccnc3[nH]ccc23)cc1 + O=C1NC(=O)/C(=C/c2ccc(-c3ccc(F)cc3O)o2)S1 [AS252424] (first compound 0.4 µM, partner dose 1 µM)",144%,26.4%,750%,1070%,92.7%,55.3%,75.9%,88%,43.8%,190%,78.1%,94.1%,57.4%,70%,66.1%,386%
"CS(=O)(=O)c1ccc(C(=O)Nc2ccc(Cl)c(-c3ccccn3)c2)c(Cl)c1 [vismodegib] + COc1ccc(-c2ccc3c(N4CCOCC4)nc(N4C[C@@H](C)O[C@@H](C)C4)nc3n2)cc1CO [KU0063794] (first compound 1 µM, partner dose 0.02 µM)",62.1%,16.8%,77.7%,158%,289%,196%,114%,238%,140%,199%,187%,47.7%,211%,146%,155%,83.5%
"CCN(CC)CCNC(=O)c1c(C)[nH]c(/C=C2\C(=O)Nc3ccc(F)cc32)c1C [sunitinib] + O=S(=O)(c1ccccc1)N(CC(F)(F)F)c1ccc(C(O)(C(F)(F)F)C(F)(F)F)cc1 [T0901317] (first compound 0.4 µM, partner dose 1.4 µM)",293%,46.3%,65.9%,86.8%,112%,92.1%,93.3%,118%,103%,66.8%,64.4%,82.3%,70.4%,36.4%,37.1%,161%
"NC1(c2ccc(-c3nc4ccn5c(=O)[nH]nc5c4cc3-c3ccccc3)cc2)CCC1 + O=C(O)C(=O)Nc1sc2c(c1C(=O)O)CCNC2 [TCS401] (first compound 0.4 µM, partner dose 1.66667 µM)",81.3%,35.7%,123%,97.1%,64.3%,90.2%,52.4%,71%,133%,116%,67.5%,107%,33.4%,45.3%,170%,64.4%
"NC(=O)c1ccc(N(C(N)=O)c2c(F)cccc2F)nc1-c1ccc(F)cc1F + COc1cc2ncnc(Nc3ccc(Oc4ccccc4)cc3)c2cc1OC [SrcI1] (first compound 0.4 µM, partner dose 2 µM)",161%,36.9%,65.3%,79.2%,57.6%,81.7%,44.8%,190%,112%,53.9%,53.9%,79.7%,72%,92%,50.6%,37.2%
